Experiment [1] deals with vimentin (recombinant vimentin protein) (UniProt P08670). Kind of experiment: co-IP; recombinant vimentin (10 pmol) and recombinant IGF1R (5 pmol) co-incubated 1 h at room temperature; precipitated over night at 4 °C with anti-vimentin antibody (RV202) or normal mouse IgG on Dynabeads Protein G in M-PER; IGF1R detected by western blot; both purified.
Experiment [2] concerns the target Recombinant human IGF1R protein (full length, Abnova) (human) (UniProt P08069). Nature of the experiment: drug affinity responsive target stability (DARTS) with western blot; recombinant human IGF1R in 25 mM Tris-HCl pH 8.0, 2% glycerol mixed with vimentin, IGF1 or vehicle (IGF1R protein:drug, 1 ng:19 ng), 60 min at room temperature; thermolysin 10 min at 37 °C (thermolysin:sample, 1 ng:50 ng); IGF1R detected by western blot; both purified. On the technique in general: A western blot detects proteins with antibodies after separation by electrophoresis.

Amino acid sequences for entries named in this document (tags omitted). Residues count along the entry.
UniProt P08670: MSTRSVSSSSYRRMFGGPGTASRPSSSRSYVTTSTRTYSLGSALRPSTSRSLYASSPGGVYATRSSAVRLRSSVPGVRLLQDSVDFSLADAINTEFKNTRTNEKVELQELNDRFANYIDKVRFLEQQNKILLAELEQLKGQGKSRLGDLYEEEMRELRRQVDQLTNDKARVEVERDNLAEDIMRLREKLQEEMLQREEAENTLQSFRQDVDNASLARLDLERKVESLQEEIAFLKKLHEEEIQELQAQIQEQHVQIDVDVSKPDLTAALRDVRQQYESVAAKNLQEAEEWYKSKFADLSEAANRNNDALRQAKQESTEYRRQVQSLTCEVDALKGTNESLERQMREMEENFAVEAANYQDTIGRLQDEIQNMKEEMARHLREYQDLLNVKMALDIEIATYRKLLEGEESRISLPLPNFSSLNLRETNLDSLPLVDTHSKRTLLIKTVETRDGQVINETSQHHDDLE
UniProt P08069, residues 31-1367: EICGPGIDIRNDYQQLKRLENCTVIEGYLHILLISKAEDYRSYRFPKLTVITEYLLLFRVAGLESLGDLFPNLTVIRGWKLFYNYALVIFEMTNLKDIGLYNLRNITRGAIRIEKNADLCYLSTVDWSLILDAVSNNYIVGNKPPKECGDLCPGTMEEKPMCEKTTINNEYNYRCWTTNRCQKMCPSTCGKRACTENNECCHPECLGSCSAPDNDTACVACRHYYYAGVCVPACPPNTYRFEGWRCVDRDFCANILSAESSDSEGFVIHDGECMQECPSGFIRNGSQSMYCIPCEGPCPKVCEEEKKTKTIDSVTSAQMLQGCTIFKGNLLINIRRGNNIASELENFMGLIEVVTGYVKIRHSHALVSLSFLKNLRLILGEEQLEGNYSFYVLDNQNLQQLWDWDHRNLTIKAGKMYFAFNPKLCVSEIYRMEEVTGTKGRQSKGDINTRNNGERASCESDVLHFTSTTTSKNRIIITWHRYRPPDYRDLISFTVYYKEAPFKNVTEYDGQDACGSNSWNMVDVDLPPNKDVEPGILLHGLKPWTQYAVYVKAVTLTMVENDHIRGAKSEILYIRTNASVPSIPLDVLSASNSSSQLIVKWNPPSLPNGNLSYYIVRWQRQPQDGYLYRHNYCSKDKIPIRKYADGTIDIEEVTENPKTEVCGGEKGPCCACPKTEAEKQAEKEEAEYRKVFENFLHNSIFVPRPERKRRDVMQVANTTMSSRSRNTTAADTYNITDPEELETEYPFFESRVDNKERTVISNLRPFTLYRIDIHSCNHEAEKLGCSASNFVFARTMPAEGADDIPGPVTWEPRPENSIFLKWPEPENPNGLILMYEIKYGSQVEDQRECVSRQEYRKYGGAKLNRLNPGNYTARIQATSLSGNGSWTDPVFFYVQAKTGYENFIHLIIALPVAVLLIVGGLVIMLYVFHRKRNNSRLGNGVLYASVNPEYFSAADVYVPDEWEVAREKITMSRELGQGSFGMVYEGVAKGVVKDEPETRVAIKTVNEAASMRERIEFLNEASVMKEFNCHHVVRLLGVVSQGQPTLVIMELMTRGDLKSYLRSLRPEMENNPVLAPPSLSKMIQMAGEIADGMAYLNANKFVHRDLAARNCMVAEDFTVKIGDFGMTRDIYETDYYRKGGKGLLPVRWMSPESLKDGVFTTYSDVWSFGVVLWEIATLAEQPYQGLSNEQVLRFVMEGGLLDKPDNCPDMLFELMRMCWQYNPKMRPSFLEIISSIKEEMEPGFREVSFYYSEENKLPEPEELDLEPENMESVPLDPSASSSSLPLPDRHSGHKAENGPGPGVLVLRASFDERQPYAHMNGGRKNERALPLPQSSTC

No constants are given. Whether binding was seen depends on the method and setting. Some entries that bind do so weakly or less than the wild type.

Take “Recombinant human IGF1R protein (full length, Abnova) (from UniProt P08069 31-1367) (receptor)”: the binding entry in experiment [1] is on record as “binds”. Consider “vimentin (recombinant vimentin protein) (from UniProt P08670 1-466)”, for which the binding entry in experiment [2] is “binds”.
